{"source": "PubChem BioAssay AID493014", "about": "(National Center for Advancing Translational Sciences (NCATS), 2011)", "assay": "qHTS Assay to Find Inhibitors of Chronic Active B-Cell Receptor Signaling", "conditions": "ABC-DLBCL IkBa-CBG/CBR reporter, luminescence ratio (green luciferase fused to IkBa over red control in TMD8 lymphoma cells), 4 h", "how_it_was_run": "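TMD8 human ABC-DLBCL cells with doxycycline-inducible IκBα–green luciferase fusion and unfused red luciferase, in 0.5% FBS medium; compounds up to 46 uM, 4 h at 37C. Green/red luminescence ratio, filter-overlap corrected, fitted to concentration-response curves.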", "key": {"[1]": {"conditions": "measured here: CBR red luminescence, cell number"}}, "note": "This is one part of the list. Shown are side measurements of this screen, not its main read-out; they come without a call. Most of these compounds were active or inconclusive in the main read-out, so they are no random draw. Potencies come from curve fits of mixed quality, noted in brackets.", "data": [{"smiles": "O=C(CSc1n[nH]c(-c2ccco2)n1)N1c2ccccc2Sc2ccccc21", "values": [{"measurement": "AC50", "setting": "[1]", "value": "15.8 µM [falling, single point]"}]}, {"smiles": "OC(CNCc1ccccc1Cl)C(F)(F)F", "note": "(centres undefined)", "values": [{"measurement": "AC50", "setting": "[1]", "value": "35.5 µM [falling, single point]"}]}, {"smiles": "CCN1/C(=C2\\C(=O)N(C)C(=S)N2C)C=Cc2ccccc21", "values": [{"measurement": "AC50", "setting": "[1]", "value": "29.1 µM [rising, single point]"}]}, {"smiles": "NC1=C(Br)C(=O)c2ccccc2C1=O", "values": [{"measurement": "AC50", "setting": "[1]", "value": "35.5 µM [falling, single point]"}]}, {"smiles": "COc1cc(C)c(Cl)cc1S(=O)(=O)n1cnc2ccccc21", "values": [{"measurement": "AC50", "setting": "[1]", "value": "0.259 µM [falling, full curve, poor fit]"}]}, {"smiles": "COc1cccc(OCc2cc(/C=N/NC(=O)c3ccn[nH]3)ccc2OC)c1", "values": [{"measurement": "AC50", "setting": "[1]", "value": "14.1 µM [falling, partial curve, poor fit]"}]}, {"smiles": "Cc1cc(NCCC(C)C)n2nc(C)c(-c3ccccc3)c2n1", "values": [{"measurement": "AC50", "setting": "[1]", "value": "0.731 µM [rising, full curve, poor fit]"}]}, {"smiles": "Cc1ccc(NCC(O)Cn2cnc3c2c(=O)n(C)c(=O)n3C)cc1", "note": "(centres undefined)", "values": [{"measurement": "AC50", "setting": "[1]", "value": "5.01 µM [rising, partial curve]"}]}, {"smiles": "COCCNC(=O)C(=O)Nc1ccc2c(c1)N(S(=O)(=O)c1cccs1)CCC2", "values": [{"measurement": "AC50", "setting": "[1]", "value": "23.1 µM [rising, single point]"}, {"measurement": "AC50", "setting": "measured here: IkBa-CBG green luminescence", "value": "16.4 µM [falling, single point]"}]}, {"smiles": "CCc1ccc(Nc2nc(N)nc(CSc3nnnn3-c3ccccc3)n2)cc1", "values": [{"measurement": "AC50", "setting": "[1]", "value": "23.1 µM [rising, partial curve]"}]}, {"smiles": "COc1ccc(Nc2cc(Sc3ccc(OC)cc3)ncn2)cc1", "values": [{"measurement": "AC50", "setting": "[1]", "value": "35.5 µM [falling, single point]"}]}, {"smiles": "O=C(CCN1C(=O)/C(=C\\c2ccccc2)SC1=S)NCCCN1CCOCC1", "values": [{"measurement": "AC50", "setting": "[1]", "value": "35.5 µM [falling, single point]"}]}, {"smiles": "Cc1cc(C)c(C(=O)CC(=O)c2ccccc2Cl)c(O)c1", "values": [{"measurement": "AC50", "setting": "[1]", "value": "35.5 µM [rising, partial curve, poor fit]"}]}, {"smiles": "CCc1ccc(CNC(=O)C2CCCN(S(=O)(=O)N(CC)c3ccccc3)C2)cc1", "note": "(centres undefined)", "values": [{"measurement": "AC50", "setting": "[1]", "value": "35.5 µM [falling, single point]"}]}, {"smiles": "CCCc1[nH]c2ccc(C(=O)OC)cc2c1CCC", "values": [{"measurement": "AC50", "setting": "[1]", "value": "31.6 µM [rising, single point]"}]}, {"smiles": "Cc1ccc(C(=O)Oc2cccc(NC(=O)c3cccs3)c2)cc1S(=O)(=O)N1CCOCC1", "values": [{"measurement": "AC50", "setting": "[1]", "value": "7.31 µM [falling, partial curve]"}]}, {"smiles": "O=C(c1cccc([N+](=O)[O-])c1)n1nc(-c2ccccc2)nc1NCc1ccccc1", "values": [{"measurement": "AC50", "setting": "[1]", "value": "20.6 µM [falling, single point]"}]}, {"smiles": "COc1ccc2ccccc2c1/C=N/NC(=O)c1ccc([N+](=O)[O-])cc1", "values": [{"measurement": "AC50", "setting": "[1]", "value": "5.62 µM [rising, single point]"}]}]}
